Measurements from the supplement of paper PMC10373366.
Where a name gives a salt, the structure may show the parent alone. This is one part of the list. Many values rest on one well or one pass, so single values are uncertain.

Assays:
[1] = tested on: patient-derived ovarian cancer cells (PDC); assay: cell growth inhibition ratio vs untreated control (CCK8); higher = stronger inhibition of cell viability; conditions: 10 µM; 48 h
Procedure: (§1)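 Natural product library (Topscience) screened at 10 µM final concentration for 48 h on ovarian cancer A2780 cells and patient-derived ovarian cancer cells (PDC) in 96-well plates; viability read by CCK8 and reported as inhibition ratio (%) relative to untreated control. Single-dose primary screen.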

A2780 = assay: as above; conditions: 10 µM; 48 h
Procedure: as §1

SMILES	cell growth inhibition ratio [1] [%]	cell growth inhibition ratio (A2780) [%]
Cc1[nH]ccc2c1[nH]c1cc(=O)ccc12 [Harmol]	26.6	
C[C@@H]1O[C@@H](O[C@@H]2[C@@H](O)[C@H](OCCc3ccc(O)c(O)c3)O[C@H](COC(=O)/C=C/c3ccc(O)c(O)c3)[C@H]2O)[C@H](O)[C@H](O)[C@H]1O [Isoacteoside]	-8.64	6
O=C1c2ccccc2C(=O)c2c1ccc(O)c2O [Alizarin]	10.7	4.07
CC[C@H]1OC(=O)C[C@@H](O)[C@H](C)[C@@H](O[C@@H]2O[C@H](C)[C@@H](O[C@H]3C[C@@](C)(O)[C@@H](O)[C@H](C)O3)[C@H](N(C)C)[C@H]2O)[C@@H](CC=O)C[C@@H](C)C(=O)/C=C/C(C)=C/[C@@H]1CO[C@@H]1O[C@H](C)[C@@H](O)[C@@H](OC)[C@H]1OC [Tylosin]	-4.99	-5.31
CC(C)=CCCC(C)CCO (stereo not given) [Citronellol]	15.3	15.4
C[C@@H]1O[C@@H](Oc2c(-c3cc(O)c(O)c(O)c3)oc3cc(O)cc(O)c3c2=O)[C@H](O)[C@H](O)[C@H]1O [Myricetrin]	-19.9	3.17
COc1cc(C2Oc3cc([C@H]4Oc5cc(O)cc(O)c5C(=O)[C@@H]4O)ccc3OC2CO)ccc1O (stereo not given in full) [Silymarin]	21.2	52.1
COc1ccc(CCO[C@@H]2O[C@H](CO[C@@H]3OC[C@H](O)[C@H](O)[C@H]3O)[C@@H](OC(=O)/C=C/c3ccc(O)c(OC)c3)[C@H](O[C@@H]3O[C@@H](C)[C@@H](O)[C@@H](O)[C@H]3O)[C@H]2O)cc1O [Angoroside C]	-6.35	3.58
CC(C)=CCC[C@](C)(O)[C@H]1CC[C@]2(C)[C@@H]1[C@H](O)C[C@@H]1[C@@]3(C)CC[C@H](O[C@@H]4O[C@H](CO)[C@@H](O)[C@H](O)[C@H]4O[C@@H]4O[C@H](CO)[C@@H](O)[C@H](O)[C@H]4O)C(C)(C)[C@@H]3CC[C@]12C [Ginsenoside Rg3]	-0.41	19.8
O=c1c(O)c(-c2ccccc2)oc2cc(O)cc(O)c12 [Galangin]	10.2	12.5
O=c1cc(-c2ccccc2)oc2cc(O)cc(O)c12 [Chrysin]	-13.7	1.14
COc1cc(/C=C/CO)cc(OC)c1O[C@@H]1O[C@H](CO)[C@@H](O)[C@H](O)[C@H]1O [Syringin]	-3.8	5.06
COc1cc(O)c2c(c1)oc(=O)c1c3cc(O)c(O)cc3oc21 [Wedelolactone]	32.9	51.7
COC(=O)C=Cc1ccc(O)cc1 [Methyl 4-hydroxycinnamate]	13.7	-43.6
COc1cc(/C=C/C(=O)O[C@H]2CC[C@]34C[C@]35CC[C@]3(C)[C@@H]([C@H](C)CCC=C(C)C)CC[C@@]3(C)[C@@H]5CC[C@H]4C2(C)C)ccc1O [Gamma-Oryzanol]	-7.49	9.42
C[C@@H]1O[C@@H](O[C@H]2[C@H](O[C@H]3CC[C@@]4(C)[C@@H](CC[C@]5(C)[C@@H]4CC=C4[C@@H]6CC(C)(C)CC[C@]6(C(=O)O)CC[C@]45C)[C@]3(C)CO)OC[C@H](O)[C@@H]2O)[C@H](O)[C@H](O)[C@H]1O [Alpha-Hederin]	40.3	22.1
COc1c(O[C@@H]2O[C@H](C(=O)O)[C@@H](O)[C@H](O)[C@H]2O)cc(O)c2c(=O)cc(-c3ccccc3)oc12 [Wogonoside]	0.917	7.6

SMILES	cell growth inhibition ratio [1] [%]	cell growth inhibition ratio (A2780) [%]
COc1cc(C[C@@H](CO[C@@H]2O[C@H](CO)[C@@H](O)[C@H](O)[C@H]2O)[C@H](CO[C@@H]2O[C@H](CO)[C@@H](O)[C@H](O)[C@H]2O)Cc2ccc(O)c(OC)c2)ccc1O [Secoisolariciresinol diglucoside]	4.99	-0.369
CC[C@@H]1C(=O)OC[C@@H]1Cc1cncn1C [(+)-Pilocarpine hydrochloride]	16.6	1.67
O=C(CCc1ccc(O)cc1)c1c(O)cc(O)cc1O [Phloretin]	13.5	4.26
C[C@H](CCC(=O)NCCS(=O)(=O)O)[C@H]1CC[C@H]2[C@@H]3[C@@H](O)C[C@@H]4C[C@H](O)CC[C@]4(C)[C@H]3CC[C@]12C [Tauroursodeoxycholic Acid]	-5.04	-4.4
CC(C)=CCC/C(C)=C/CC/C(C)=C/CC/C(C)=C/CC/C(C)=C/CC/C(C)=C/CC/C(C)=C/CC/C(C)=C/CC/C(C)=C/CO [Solanesol]	9.11	9.12
CN[C@@H]1[C@@H](O[C@H]2O[C@H](CO)[C@@H](N)[C@H](O)[C@H]2O)OC2C[C@@H](N)[C@@H](O[C@H]3[C@H](O)[C@@H](O)[C@H](N)C[C@@H]3N)OC2[C@@H]1O (stereo not given in full) [Apramycin sulfate]	-1.17	
CN1CCC[C@H]1c1cccnc1 [Nicotine]	10.1	
C[C@@H]1CC[C@@]2(OC1)O[C@H]1C[C@H]3[C@@H]4CC=C5C[C@@H](O[C@@H]6O[C@H](CO)[C@@H](O)[C@H](O)[C@H]6O)CC[C@]5(C)[C@H]4CC[C@]3(C)[C@H]1[C@@H]2C [Diosgenin glucoside]	30.3	49.3
OC[C@@H](O)[C@H](O)[C@@H](O)CO [Xylitol]	1.37	8.88
CC(C)CCC[C@@H](C)[C@H]1CC[C@H]2[C@@H]3CC=C4C[C@@H](O)CC[C@]4(C)[C@H]3CC[C@]12C [Cholesterol]	5.92	11.3
C[C@@H]1O[C@@H](O[C@H]2[C@H](O[C@H]3CC[C@@]4(C)[C@@H](CC[C@]5(C)[C@@H]4CC=C4[C@@H]6CC(C)(C)CC[C@]6(C(=O)O[C@@H]6O[C@H](CO[C@@H]7O[C@H](CO)[C@@H](O[C@@H]8O[C@@H](C)[C@H](O)[C@@H](O)[C@H]8O)[C@H](O)[C@H]7O)[C@@H](O)[C@H](O)[C@H]6O)CC[C@]45C)[C@]3(C)CO)OC[C@H](O)[C@@H]2O)[C@H](O)[C@H](O)[C@H]1O [Hederacoside C]	1.29	8.8
C=C(C)[C@H]1CC=C(C)CC1 [Cinene]	-7.02	21.3
C=C1CC[C@H](O)C/C1=C/C=C1\CCC[C@]2(C)[C@@H]([C@H](C)/C=C/[C@H](C)C(C)C)CC[C@@H]12 [Vitamin D2]	16.1	3.27
C/C=C(/C)C(=O)OC(C)(C)[C@@H]1Cc2c(ccc3ccc(=O)oc23)O1 [Columbianadin]	0.17	-7.97
C[C@@H]1O[C@@H](OC[C@H]2O[C@@H](OCCc3ccc(O)c(O)c3)[C@H](O)[C@@H](O)[C@@H]2OC(=O)/C=C/c2ccc(O)c(O)c2)[C@H](O)[C@H](O)[C@H]1O [Forsythoside A]	-13.3	20.1
C=C1CC[C@H]2C(=C)CC[C@H]3C(=C)C(=O)O[C@@H]3[C@@H]12 [Dehydrocostus Lactone]	33.8	61.6
N[C@@H](Cc1ccc(O)c(O)c1)C(=O)O [Levodopa]	8.32	8.33

Whole records, looked up by structure.
`C[C@@H]1O[C@@H](O[C@H]2[C@H](O[C@H]3CC[C@@]4(C)[C@@H](CC[C@]5(C)[C@@H]4CC=C4[C@@H]6CC(C)(C)CC[C@]6(C(=O)O[C@@H]6O[C@H](CO[C@@H]7O[C@H](CO)[C@@H](O[C@@H]8O[C@@H](C)[C@H](O)[C@@H](O)[C@H]8O)[C@H](O)[C@H]7O)[C@@H](O)[C@H](O)[C@H]6O)CC[C@]45C)[C@]3(C)CO)OC[C@H](O)[C@@H]2O)[C@H](O)[C@H](O)[C@H]1O` [Hederacoside C] in the list: cell growth inhibition ratio [1] [%]: 1.29; cell growth inhibition ratio (A2780) [%]: 8.8
`C=C1CC[C@H](O)C/C1=C/C=C1\CCC[C@]2(C)[C@@H]([C@H](C)/C=C/[C@H](C)C(C)C)CC[C@@H]12` [Vitamin D2] in the list: cell growth inhibition ratio [1] [%]: 16.1; cell growth inhibition ratio (A2780) [%]: 3.27
